Results reported in publication PMC10917549.
Results are given in words; binding and its absence hold for the method and conditions named. Some results given as binding are weak or reduced against the parent protein; the word gives no strength.

Protein sequences, listed by entry. Tags and fused reporters are not part of them.
UniProt Q00987: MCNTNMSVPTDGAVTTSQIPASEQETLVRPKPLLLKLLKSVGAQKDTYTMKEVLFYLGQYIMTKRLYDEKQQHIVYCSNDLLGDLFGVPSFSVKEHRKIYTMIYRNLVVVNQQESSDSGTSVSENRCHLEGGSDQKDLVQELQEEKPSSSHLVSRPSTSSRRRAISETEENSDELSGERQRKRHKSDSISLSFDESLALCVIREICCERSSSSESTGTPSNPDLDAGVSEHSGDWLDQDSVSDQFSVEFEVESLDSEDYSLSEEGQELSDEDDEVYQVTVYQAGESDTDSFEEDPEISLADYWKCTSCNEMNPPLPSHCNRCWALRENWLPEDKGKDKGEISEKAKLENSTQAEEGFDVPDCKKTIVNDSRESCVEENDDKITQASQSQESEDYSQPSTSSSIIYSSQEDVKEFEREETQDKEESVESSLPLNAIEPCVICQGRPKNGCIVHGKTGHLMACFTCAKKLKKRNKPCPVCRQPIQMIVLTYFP

Target: MDM2 (UniProt Q00987)
Assay: two-hybrid; Y2H Gold yeast; MDM2 in pGBKT7 as bait, FBXO31 or F-box-mut in PGADT7 as prey; growth and blue colour of colonies on TDO (SD/-Leu/-Trp/-His) and QDO (SD/-Leu/-Trp/-His/-Ade) after three days

B1: F-box only protein 31 (FBXO31) (protein, UniProt Q5XUX0 1-539)
chain: MAVCARLCGVGPSRGCRRRQQRRGPAETAAADSEPDTDPEEERIEASAGVGGGLCAGPSPPPPRCSLLELPPELLVEIFASLPGTDLPSLAQVCTKFRRILHTDTIWRRRCREEYGVCENLRKLEITGVSCRDVYAKLLHRYRHILGLWQPDIGPYGGLLNVVVDGLFIIGWMYLPPHDPHVDDPMRFKPLFRIHLMERKAATVECMYGHKGPHHGHIQIVKKDEFSTKCNQTDHHRMSGGRQEEFRTWLREEWGRTLEDIFHEHMQELILMKFIYTSQYDNCLTYRRIYLPPSRPDDLIKPGLFKGTYGSHGLEIVMLSFHGRRARGTKITGDPNIPAGQQTVEIDLRHRIQLPDLENQRNFNELSRIVLEVRERVRQEQQEGGHEAGEGRGRQGPRESQPSPAQPRAEAPSKGPDGTPGEDGGEPGDAVAAAEQPAQCGQGQPFVLPVGVSSRNEDYPRTCRMCFYGTGLIAGHGFTSPERTPGVFILFDEDRFGFVWLELKSFSLYSRVQATFRNADAPSPQAFDEMLKNIQSLTS
In the case of B1, the binding is reported as “binds”.
